Results reported in publication PMC3208602.
Results are given in words; binding and its absence hold for the method and conditions named. In cells and extracts the contact can be indirect. Some binding calls cover weakened binding; strength is not graded here.

Target: sortilin (human (endogenous in SUDHL4 and SUDHL6)), Q99523
Assay: co-IP; sortilin immunoprecipitated from cell lysates, protein A/G-agarose beads, blotted with anti-p75^NTR; SUDHL4 with 10% FCS or after 72 h serum deprivation; SUDHL4 and SUDHL6 with or without rituximab 20 µg/ml
Conditions: remark: other sources report otherwise

binding: binds
B1: p75 NT receptor (p75^NTR), mature 75 kDa form, P08138 29-427 (receptor)
chain: KEACPTGLYTHSGECCKACNLGEGVAQPCGANQTVCEPCLDSVTFSDVVSATEPCKPCTECVGLQSMSAPCVEADDAVCRCAYGYYQDETTGRCEACRVCEAGSGLVFSCQDKQNTVCEECPDGTYSDEANHVDPCLPCTVCEDTERQLRECTRWADAECEEIPGRWITRSTPPEGSDSTAPSTQEPEAPPEQDLIASTVAGVVTTVMGSSQPVVTRGTTDNLIPVYCSILAAVVVGLVAYIAFKRWNSCKQNKQGANSRPVNQTPPPEGEKLHSDSGISVDSQSLHDQQPHTQTASGQALKGDGGLYSSLPPAKREEVEKLLNGSAGDTWRHLAGELGYQPEHIDSFTHEACPVRALLASWATQDSATLDALLAALRRIQRADLVESLCSESTATSPV
